# Reference: US8680233B2, “Heteropeptides useful for reducing nonspecific adsorption” (Valorisation-Recherche, Limited Partnership, priority 2009, dated 2014)
# Tested on: bovine serum proteins
# Assay: Nonspecific adsorption of bovine serum proteins on peptide SAMs measured by SPR
# Conditions: for Nonspecific adsorption ΔΓnonspecific: undiluted adult bovine serum on peptide SAM, Table I, average of four replicates; for ΔΓnonspecific: bovine serum on peptide SAM, Table II
# Procedure: The surface coverage for each monolayer was measured according to the change in response of the SPR sensor in PBS for the bare Au surface relative to the peptide-coated Au surface. To measure the formation of the monolayers, each SPR sensor was mounted on a custom-made SPR instrument in the Kretschmann configuration based on a dove prism with wavelength interrogation as previously described (Bolduc et al., 2009, supra). An Ocean Optics™ USB4000 fibre optic spectrometer ranging from 550 to 850 nm was used to acquire the spectral information processed with Matlab to obtain the SPR sensorgram. A 25 μL Teflon fluidic cell positioned on top of the SPR sensors was used to inject the solutions required to functionalize with the recognition element and detect the analytes of interest. The SPR response was acquired at a frequency of 1 Hz. The s-polarized reference was acquired in PBS buffer before monitoring a 5 minute baseline in p-polarization. PBS was replaced with crude bovine serum (76 mg/mL protein) for 20 minutes and rinsed with PBS for 5 minutes to quantify the amount of non-specifically adsorbed proteins.
# The first part of the sensorgram is a reference measured while PBS is in contact with the surface of the SPR sensor covered with the 3-MPA-HHHDD-OH peptide. PBS is first injected over a period of 200 s in the SPR system. […] After 5 minutes, PBS is replaced with adult bovine serum. The instant shift of signal is due to the refractive index of the bulk solution (the refractive index of serum is greater than the refractive index of PBS). This shift is unrelated to the nonspecific adsorption of proteins. The more progressive increase of λSPR typical to a Langmuir-Blodgett model describing the evolution of interactions at a surface used to characterize the evolution of the nonspecific interaction with time. PBS buffer is then injected over the sensor to obtain a second reference, allowing the quantification of nonspecific proteins still attached at the surface of the sensor. A return to the initial λSPR value (i.e., the value prior to bovine serum injection), as shown in FIG. 1A (1200 s to 1600 s time frame) is indicative of an efficient SAM that reduces nonspecific interactions.
# These values are lower than those measured in other types of monolayers, which typically range between 100 to 1000 ng/cm^2 (Luppa, P. B. et al. Clin. Chim. Acta 2001, 314: 1); Masson, J. F. et al. Talanta 2005, 67: 918; Masson, J. F. et al. Anal. Bioanal. Chem. 2006, 386: 1951; Bolduc, O. R. et al. Anal. Chem. 2009, 81: 6779; Bolduc, O. R. and Masson, J. F. Langmuir 2008, 24: 12085).
Substance,Nonspecific adsorption ΔΓnonspecific,ΔΓnonspecific,further results
3-MPA-LLLDD (N-terminal 3-mercaptopropionic acid),35 ng/cm^2,,
3-MPA-LHDLHD-OH (N-terminal 3-mercaptopropionic acid),,12 ± 11 ng/cm^2,Reduction in nonspecific adsorption relative to binary peptide SAM (relative to Table I peptides): 2 factor
3-MPA-LLLSS (N-terminal 3-mercaptopropionic acid),39 ng/cm^2,,
3-MPA-SSSHH (N-terminal 3-mercaptopropionic acid),79 ng/cm^2,,
3-MPA-LLHHDD-OH (N-terminal 3-mercaptopropionic acid),,174 ± 120 ng/cm^2,
3-MPA-DDDSS (N-terminal 3-mercaptopropionic acid),69 ng/cm^2,,
3-MPA-HHHDD-OH (N-terminal 3-mercaptopropionic acid),32 ng/cm^2,,"Shift of SPR signal (λSPR) after bovine serum exposure and PBS rinse (bovine serum 200-1200 s, then PBS): less than 1 nm"
3-MPA-GGHHDD-OH (N-terminal 3-mercaptopropionic acid),,149 ± 100 ng/cm^2,
3-MPA-DDDHH (N-terminal 3-mercaptopropionic acid),56 ng/cm^2,,
3-MPA-SHDSHD-OH (N-terminal 3-mercaptopropionic acid),,17 ± 14 ng/cm^2,
3-MPA-HHHSS (N-terminal 3-mercaptopropionic acid),48 ng/cm^2,,
3-MPA-DSDSD-OH (N-terminal 3-mercaptopropionic acid),,34 ± 31 ng/cm^2,
3-MPA-LLLHH (N-terminal 3-mercaptopropionic acid),45 ng/cm^2,,
3-MPA-SSSDD (N-terminal 3-mercaptopropionic acid),23 ng/cm^2,,
